PubChem BioAssay AID1259254 – NCATS – 2017
Here is a random part of about 59,000 reagents. Of all reagents, about 1,550 (2.6%) got an active call. 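G2 share is only a proxy for re-replication; each gene was hit by three separate siRNAs, and active genes were retested.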 Further read-outs or replicates are left out here. Reagent sequences are not shown. Not given: the amount of reagent.

- Aim: 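Gene knock-downs that lead to re-replication, shown by excess G2 DNA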 (primary screen)
- Cell system: human HCT116 colorectal cancer cells
- Knock-down reagent: single siRNA against human genes
- Duration: 3 days
- Measured: 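Imaged Hoechst DNA stain sorts each cell into a cycle phase by DNA amount; per plate, G2 fraction set to 0% for non-targeting and 100% for GMNN siRNA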
- Direction: G2 robust z-score and G2 cells, % of GMNN control: higher = more G2 cells, more excess DNA replication
- Rule for the call: 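An siRNA counts as active if its G2 robust z-score lies at least 5 MADs above the screen median; here such calls match roughly 38% of GMNN control or more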

ISX (intestine specific homeobox) [SID160753992] scored G2 robust z-score 2.69; G2 cells, % of GMNN control 21.9; inactive.
For ISX (intestine specific homeobox) [SID160753993], the values are G2 robust z-score 4.93; G2 cells, % of GMNN control 37.7; inactive.
For ISX (intestine specific homeobox) [SID160753994], the entry reads G2 robust z-score -0.389; G2 cells, % of GMNN control 0.231; inactive.
After knock-down of NOXO1 (NADPH oxidase organizer 1) [SID160724766] the results were G2 robust z-score 1.86; G2 cells, % of GMNN control 16.1; inactive.
Silencing of NOXO1 (NADPH oxidase organizer 1) [SID160724767] resulted in: G2 robust z-score 3.85; G2 cells, % of GMNN control 30.1; inactive.
After knock-down of NOXO1 (NADPH oxidase organizer 1) [SID160724768], the record shows G2 robust z-score -0.101; G2 cells, % of GMNN control 2.25; inactive.
Silencing of TLR7 (toll like receptor 7) [SID160740493] resulted in: G2 robust z-score 4.79; G2 cells, % of GMNN control 36.7; inactive.
TLR7 (toll like receptor 7) [SID160740494] scored G2 robust z-score -0.316; G2 cells, % of GMNN control 0.745; inactive.
With knock-down of TLR7 (toll like receptor 7) [SID160740495] the results were G2 robust z-score 0.484; G2 cells, % of GMNN control 6.37; inactive.
For ATP6V1C2 (ATPase H+ transporting V1 subunit C2) [SID160761988], the values are G2 robust z-score 1.05; G2 cells, % of GMNN control 10.4; inactive.
For ATP6V1C2 (ATPase H+ transporting V1 subunit C2) [SID160761989], the values are G2 robust z-score 0.0311; G2 cells, % of GMNN control 3.19; inactive.
ATP6V1C2 (ATPase H+ transporting V1 subunit C2) [SID160761990] gave G2 robust z-score 1.95; G2 cells, % of GMNN control 16.7; inactive.
With knock-down of RNF150 (ring finger protein 150) [SID160746079] the results were G2 robust z-score 0.529; G2 cells, % of GMNN control 6.69; inactive.
Silencing of RNF150 (ring finger protein 150) [SID160746080] resulted in: G2 robust z-score -0.623; G2 cells, % of GMNN control -1.42; inactive.
RNF150 (ring finger protein 150) [SID160746081] scored G2 robust z-score -0.476; G2 cells, % of GMNN control -0.379; inactive.
COMMD6 (COMM domain containing 6) [SID160760436] gave G2 robust z-score 1.56; G2 cells, % of GMNN control 13.9; inactive.
Depletion of COMMD6 (COMM domain containing 6) [SID160760437] resulted in: G2 robust z-score -0.499; G2 cells, % of GMNN control -0.546; inactive.
Depletion of COMMD6 (COMM domain containing 6) [SID160760438] came out at: G2 robust z-score 1.7; G2 cells, % of GMNN control 15; inactive.

Reprinted from above, 2 entries:
RNF150 (ring finger protein 150) [SID160746081] — G2 robust z-score: -0.476; G2 cells, % of GMNN control: -0.379; Outcome: inactive
COMMD6 (COMM domain containing 6) [SID160760436] — G2 robust z-score: 1.56; G2 cells, % of GMNN control: 13.9; Outcome: inactive
